Results deposited as PubChem BioAssay AID652243 (Drosophila RNAi Screening Center, 2013)
The deposit covers about 24,000 reagents; below is an unselected part of those that have a named target and a result. In the full data, 246 (1%) are marked active. 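Plates not normalised; calls are printed but the firefly/Renilla ratio behind them is not deposited; fold cut for lowering reported inconsistently.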 Raw values are not corrected between plates. A plus sign joins genes that one reagent is predicted to hit. Reagent sequences are not shown. The record does not give: the amount of reagent.

Screen: 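Fly genes required for human androgen receptor driven transcription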 (primary screen)
Cells: Drosophila S2R+ cells
Reagents: long dsRNA against Drosophila genes
Time to read-out: 72 h (48 h, then 24 h hormone)
Conditions: synthetic androgen R1881 at 10 nM for 24 h
Read-out: 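Per-well raw luminescence of the androgen-driven firefly reporter and of the Renilla control, two replicates each, without normalisation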
Direction: firefly reporter light: higher = more light from androgen-responsive reporter; Renilla control light: higher = more constitutive control signal (cell number, transfection)
Call rule: 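Hit when the log firefly-to-Renilla ratio dropped or increased by a fixed fold versus the mean of GFP or LacZ controls across duplicate plates; lowering cut given as 1.5 and as 3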
Meaning of the calls: active = hit: reporter lowered or raised; inactive = no hit

For CG10300 (GeneID 42798) [DRSC14225] the deposit lists firefly reporter light, replicate 1 = 1.86e5; firefly reporter light, replicate 2 = 2.08e5; Renilla control light, replicate 1 = 3.24e6; Renilla control light, replicate 2 = 2.90e6; inactive. slp2 (GeneID 33608) [DRSC00836] scored firefly reporter light, replicate 1 = 1.43e5; firefly reporter light, replicate 2 = 1.71e5; Renilla control light, replicate 1 = 7.02e5; Renilla control light, replicate 2 = 9.72e5; inactive. Silencing of slp2 (GeneID 33608) [DRSC26622] resulted in: firefly reporter light, replicate 1 = 4.06e5; firefly reporter light, replicate 2 = 5.61e5; Renilla control light, replicate 1 = 4.60e5; Renilla control light, replicate 2 = 4.62e5; inactive. Depletion of CG13077 (GeneID 35252) [DRSC02181] resulted in: firefly reporter light, replicate 1 = 2.56e5; firefly reporter light, replicate 2 = 3.21e5; Renilla control light, replicate 1 = 2.05e6; Renilla control light, replicate 2 = 2.19e6; inactive. For Tcs6 + PIG-P [DRSC13742] the deposit lists firefly reporter light, replicate 1 = 21472; firefly reporter light, replicate 2 = 36025; Renilla control light, replicate 1 = 96486; Renilla control light, replicate 2 = 91087; inactive. Tcs6 + PIG-P [DRSC14893] scored firefly reporter light, replicate 1 = 4.10e5; firefly reporter light, replicate 2 = 2.63e5; Renilla control light, replicate 1 = 3.17e6; Renilla control light, replicate 2 = 2.16e6; inactive.

Bili (GeneID 43019) [DRSC14405] scored firefly reporter light, replicate 1 = 73900; firefly reporter light, replicate 2 = 53562; Renilla control light, replicate 1 = 4.00e5; Renilla control light, replicate 2 = 3.86e5; inactive. For Ciao1 (GeneID 36655) [DRSC06170] the deposit lists firefly reporter light, replicate 1 = 1.19e6; firefly reporter light, replicate 2 = 1.35e6; Renilla control light, replicate 1 = 1.93e6; Renilla control light, replicate 2 = 1.95e6; inactive. Depletion of Muc18B (GeneID 32913) [DRSC21644] resulted in: firefly reporter light, replicate 1 = 8.93e5; firefly reporter light, replicate 2 = 6.24e5; Renilla control light, replicate 1 = 1.40e6; Renilla control light, replicate 2 = 1.13e6; inactive. Knock-down of Muc18B (GeneID 32913) [DRSC28889] came out at: firefly reporter light, replicate 1 = 2.88e5; firefly reporter light, replicate 2 = 4.37e5; Renilla control light, replicate 1 = 7.99e5; Renilla control light, replicate 2 = 8.42e5; inactive. With knock-down of CAH1 (GeneID 34786) [DRSC29399] the results were firefly reporter light, replicate 1 = 1.16e6; firefly reporter light, replicate 2 = 1.54e6; Renilla control light, replicate 1 = 1.21e6; Renilla control light, replicate 2 = 1.21e6; inactive. For Amph (GeneID 36383) [DRSC07578], the entry reads firefly reporter light, replicate 1 = 9.45e5; firefly reporter light, replicate 2 = 8.27e5; Renilla control light, replicate 1 = 1.58e6; Renilla control light, replicate 2 = 1.45e6; inactive.

dpr11 (GeneID 40800) [DRSC12561] showed firefly reporter light, replicate 1 = 78084; firefly reporter light, replicate 2 = 1.02e5; Renilla control light, replicate 1 = 1.93e6; Renilla control light, replicate 2 = 1.94e6; inactive. After knock-down of dpr11 (GeneID 40800) [DRSC12562] the results were firefly reporter light, replicate 1 = 59473; firefly reporter light, replicate 2 = 70437; Renilla control light, replicate 1 = 1.36e6; Renilla control light, replicate 2 = 1.05e6; inactive. dpr11 (GeneID 40800) [DRSC12563] scored firefly reporter light, replicate 1 = 62554; firefly reporter light, replicate 2 = 92854; Renilla control light, replicate 1 = 1.39e6; Renilla control light, replicate 2 = 1.47e6; inactive. DIP-eta (GeneID 33793) [DRSC02342] scored firefly reporter light, replicate 1 = 2.15e5; firefly reporter light, replicate 2 = 1.79e5; Renilla control light, replicate 1 = 1.90e6; Renilla control light, replicate 2 = 1.34e6; inactive. CR33294 (GeneID 3772637) [DRSC22950] scored firefly reporter light, replicate 1 = 3.18e5; firefly reporter light, replicate 2 = 1.05e6; Renilla control light, replicate 1 = 4.79e5; Renilla control light, replicate 2 = 2.07e6; inactive. Slip1 (GeneID 43809) [DRSC17146] showed firefly reporter light, replicate 1 = 1.38e5; firefly reporter light, replicate 2 = 1.29e5; Renilla control light, replicate 1 = 9.06e5; Renilla control light, replicate 2 = 5.39e5; inactive.

Limited to “Renilla control light, replicate 2” (2 entries from above):
CG10300 (GeneID 42798) [DRSC14225]	2.90e6
slp2 (GeneID 33608) [DRSC00836]	9.72e5

The list goes on:
Depletion of sala + CG43355 [DRSC01188] came out at: firefly reporter light, replicate 1 = 5.16e5; firefly reporter light, replicate 2 = 9.31e5; Renilla control light, replicate 1 = 9.90e5; Renilla control light, replicate 2 = 1.07e6; inactive. After knock-down of sala + CG43355 [DRSC03605], the screen gave firefly reporter light, replicate 1 = 3.24e5; firefly reporter light, replicate 2 = 4.26e5; Renilla control light, replicate 1 = 2.54e6; Renilla control light, replicate 2 = 2.95e6; inactive. wge (GeneID 42687) [DRSC15246] showed firefly reporter light, replicate 1 = 84388; firefly reporter light, replicate 2 = 99281; Renilla control light, replicate 1 = 9.69e5; Renilla control light, replicate 2 = 1.10e6; inactive. wge (GeneID 42687) [DRSC15672] showed firefly reporter light, replicate 1 = 2.04e5; firefly reporter light, replicate 2 = 2.91e5; Renilla control light, replicate 1 = 2.71e6; Renilla control light, replicate 2 = 2.74e6; inactive. With knock-down of slpr (GeneID 44111) [DRSC18225], the record shows firefly reporter light, replicate 1 = 1.07e5; firefly reporter light, replicate 2 = 80684; Renilla control light, replicate 1 = 5.02e5; Renilla control light, replicate 2 = 5.04e5; inactive. After knock-down of slpr (GeneID 44111) [DRSC23321], the screen gave firefly reporter light, replicate 1 = 4.19e5; firefly reporter light, replicate 2 = 3.62e5; Renilla control light, replicate 1 = 1.07e6; Renilla control light, replicate 2 = 8.80e5; inactive.

For slpr (GeneID 44111) [DRSC36808], the values are inactive. Against slpr (GeneID 44111) [DRSC36809] the deposit lists inactive. With knock-down of ATP6AP2 (GeneID 41104) [DRSC16420] the results were firefly reporter light, replicate 1 = 1.66e5; firefly reporter light, replicate 2 = 1.62e5; Renilla control light, replicate 1 = 2.83e6; Renilla control light, replicate 2 = 2.56e6; inactive.
